This assay is described as follows: qHTS Assay for Modulators of Lamin A Splicing. Conditions: HeLa LMNA splicing GFP/RFP minigene ratio, 48 h. The method, boiled down:
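Read-out is the ratio of GFP to DsRed2 object intensity, acquired by 488 nm laser-scanning cytometry on HeLa lamin A-EGFP minigene reporter cells. Compound incubation 48 hrs at 37 °C in Opti-MEM with 2% FBS; DMSO 0.5% final.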
A general note: In qHTS, concentration-response curves come from the screen itself.

Setting [1] is: measured here: GFP splicing reporter channel.
Setting [2] is: measured here: RFP viability control channel.

Each structure is given as a SMILES string. Some of the results follow. These are further read-outs of the screen, such as a control signal, another cell line or another target. No call is given for them. The list favours compounds with an active or inconclusive main result. The note in brackets gives the kind of curve behind each potency; many fits are weak.

Regarding `O=C(Nc1nccs1)c1ccc(Cl)c(S(=O)(=O)N2CCCCC2)c1`, the AC50 – broadly, the midpoint of the concentration-response curve, whichever way the signal moves – runs as follows: under setting [1], 0.794 µM [rising, full curve, poor fit]; under setting [2], 14.1 µM [rising, partial curve].
Consider `COc1ccc(NCc2n[nH]nc2-c2ccccc2)cc1Cl`, for which the AC50 under setting [1] was 35.5 µM [rising, single point].
Take `COc1ccc(-c2noc(-c3ccccc3-c3ccccc3)n2)cc1`: the AC50 is, setting by setting: under setting [1], 31.6 µM [falling, partial curve]; under setting [2], 31.6 µM [falling, partial curve, poor fit].
Consider `COc1nc(-c2ccc(C)cc2)ccc1-c1noc(-c2ccco2)n1`, for which the AC50 is 11.2 µM [rising, partial curve, poor fit] under setting [1] and 8.91 µM [rising, partial curve] under setting [2].
As to `C[C@@H]1C=C[C@](Cc2ccccc2)(C(=O)NCCc2c[nH]c3ccccc23)N1C(=O)c1ccccc1`, the AC50 under setting [2] was 31.6 µM [rising, single point].
For the compound `COc1ccc(NS(=O)(=O)c2cc(NC(=O)Cc3cccs3)ccc2C)cc1`, under setting [2], the AC50 was 35.5 µM [rising, single point].
For the compound `COc1cccc2sc(N(CCN(C)C)C(=O)/C=C/c3cccs3)nc12`, the AC50 under setting [1] is 1.78 µM [rising, partial curve, poor fit].
In the case of `c1ccc(-c2ccccc2OCCCCN2CCCCCC2)cc1`, under setting [2], the AC50 was 15.8 µM [rising, partial curve, poor fit].
Consider `O=c1c(O)c(-c2ccccc2)oc2cc(O)ccc12`, for which, under setting [1], the AC50 is 22.4 µM [falling, partial curve, poor fit].
For the compound `Cc1nc(SCc2cccc(C(=O)O)c2)nc2c1CCCC2`, the AC50 under setting [2] is 0.708 µM [falling, full curve, poor fit].
Still for that read-out and setting: then `Cn1c(CSCc2ccccc2Cl)nnc1SCC(=O)Nc1nccs1`, with 11.2 µM [rising, partial curve].
Consider `CCOc1ccc(S(=O)(=O)NN2Cc3ccccc3C2=N)cc1`, for which the AC50 is, setting by setting: under setting [1], 0.178 µM [falling, full curve, poor fit]; under setting [2], 1.12 µM [falling, full curve, poor fit].
For `Cc1cc(-n2[nH]c(C)c(C)c2=O)nc(-c2ccccc2O)n1`, the AC50 under setting [2] is 31.6 µM [rising, single point].
In the case of `C=CCn1c(Oc2ccc(C(=O)OC)cc2)nc2c1c(=O)n(C)c(=O)n2C`, the AC50 reads like this: under setting [1], 35.5 µM [rising, single point]; under setting [2], 35.5 µM [rising, single point].
As for `NC[C@@H]1O[C@H](O[C@@H]2[C@H](O[C@@H]3O[C@H](CO)[C@@H](O)[C@@H]3O)[C@@H](O)[C@@H](N)C[C@H]2N)[C@@H](N)[C@H](O)[C@@H]1O`, the AC50 is 0.0891 µM [falling, full curve, poor fit] under setting [1] and 2.82 µM [falling, partial curve, poor fit] under setting [2].
In the case of `Cc1cccc(NS(=O)(=O)c2ccc(Oc3ccccc3)cc2)n1`, the AC50 under setting [2] was 12.6 µM [rising, partial curve, poor fit].
Consider `COc1ccc2cc(-c3cc(C(=O)OCC(=O)NC4CCS(=O)(=O)C4)c4ccccc4n3)ccc2c1` (centres undefined), for which the AC50 is 0.178 µM [rising, full curve] under setting [1] and 31.6 µM [rising, partial curve, poor fit] under setting [2].
In the case of `c1ccc(Cn2ccc(-c3cnc(-c4ccccc4)s3)n2)cc1`, the AC50 under setting [2] was 11.2 µM [rising, single point].
Turning to `Cc1nc2cc(NC(=O)COc3ccccc3C#N)ccc2n1-c1ccccc1`, the AC50 runs as follows: under setting [1], 12.6 µM [rising, single point]; under setting [2], 15.8 µM [rising, single point].
Consider `CCOc1ccccc1CNC(=O)c1ccc2c(c1)sc1nc(-c3cccc(OC)c3)cn12`, for which the AC50 by setting is: under setting [1], 3.55 µM [falling, single point]; under setting [2], 3.16 µM [falling, partial curve, poor fit].
For the compound `CC(C)(C)NC(=O)C(c1ccccn1)N(C(=O)C1CSC(=O)C1)c1ccccc1F` (centres undefined), under setting [2], the AC50 was 7.08 µM [falling, full curve, poor fit].
Consider `CCCCn1c(-c2cc(Cl)ccc2OC)n[nH]c1=S`, for which the AC50 by setting is: under setting [1], 12.6 µM [rising, partial curve, poor fit]; under setting [2], 35.5 µM [rising, partial curve, poor fit].
For `CC(C)N(Cc1nc(-c2ccccc2)no1)C(=O)CN(C)S(=O)(=O)c1ccc(Br)cc1`, the AC50 under setting [2] is 31.6 µM [rising, single point].
`N#CCCCSc1nnc(CSc2nc3ccccc3s2)n1-c1ccccc1`: the AC50 reads like this: under setting [1], 11.2 µM [rising, single point]; under setting [2], 17.8 µM [rising, single point].
Take `COc1ccc(-c2[nH]ncc2C=O)cc1OC`: the concentration at half-maximal activity (AC50) under setting [2] was 0.0355 µM [rising, full curve, poor fit].
`COc1ccc(N(Cc2ccco2)C(=O)c2ccccc2F)cc1OC`: the AC50 runs as follows: under setting [1], 11.2 µM [rising, partial curve, poor fit]; under setting [2], 15.8 µM [rising, single point].
Turning to `N#CCCN(C(=O)CO/N=C/c1cccc([N+](=O)[O-])c1)c1ccccc1`, the AC50 under setting [1] was 5.01 µM [falling, full curve] and the AC50 under setting [2] was 6.31 µM [falling, full curve, poor fit].
As for `COC(=O)c1[nH]c2ccc(C)cc2c1NC(=O)CN1CCc2cc(OC)c(OC)cc2C1`, the AC50 was 0.708 µM [falling, full curve, poor fit] under setting [1] and 1.12 µM [falling, full curve, poor fit] under setting [2].
Take `COc1ccc(C2N(S(=O)(=O)c3ccccc3)CCN2S(=O)(=O)c2ccc(C)cc2)cc1` (centres undefined): the AC50 under setting [2] was 3.98 µM [falling, partial curve, poor fit].
On to `Cc1ccc(-n2ncc3c(N4CCN(C)CC4)ncnc32)cc1Cl`, for which the AC50 under setting [1] was 35.5 µM [falling, partial curve, poor fit].
As for `O=C(Nc1ncc2c(n1)CC(c1ccco1)CC2=O)c1ccco1` (centres undefined), the AC50 under setting [2] is 0.00398 µM [falling, full curve, poor fit].
With `COC(=O)c1c(NC(=O)c2cccs2)sc2c1CCC(C)C2` (centres undefined), the AC50 under setting [1] is 5.62 µM [rising, single point].
Take `CCc1cccc(NC(=O)CSc2ncccc2C(=O)Oc2ccccc2Cl)c1`: the AC50 under setting [2] is 0.00447 µM [rising, full curve, poor fit].
Consider `Cc1cccc(C)c1NC(=O)Nc1cccs1`, for which the AC50 under setting [2] was 35.5 µM [rising, single point].
As for `COc1ccc(Br)cc1CN(C)CC(=O)Nc1c(Cl)cccc1Cl`, the AC50 under setting [1] is 22.4 µM [falling, single point] and the AC50 under setting [2] is 12.6 µM [falling, single point].
Regarding `CC(OC(=O)c1cc(-c2cccnc2)nc2ccccc12)C(=O)Nc1ccc2ccccc2c1` (centres undefined), the AC50 under setting [2] is 4.47 µM [rising, single point].
In the case of `CC(/C=C/c1cccc(Oc2ccc(F)cc2)c1)N(O)C(N)=O` (centres undefined), the AC50 reads like this: under setting [1], 10 µM [falling, partial curve, poor fit]; under setting [2], 0.00447 µM [falling, full curve, poor fit].
Take `COc1ccc2[nH]c(C)c(CCN(Cc3cccs3)C(=S)Nc3ccccc3OC)c2c1`: the AC50 under setting [2] was 5.01 µM [rising, partial curve, poor fit].
Regarding `Cc1c(C(=O)N/N=C/c2ccc(Cl)cc2)[nH]c2ccc(Cl)cc12`, under setting [2], the AC50 was 0.708 µM [rising, full curve].
On to `CN(CCOc1ccc(Cl)cc1)c1ccc(S(=O)(=O)N2CCCCC2)cn1`, for which the AC50 under setting [1] was 10 µM [rising, partial curve] and the AC50 under setting [2] was 7.08 µM [rising, partial curve].
`CCOC(=O)C1=C(C)NC(C)=C(C(=O)OCC)C1C(=O)OCC(=O)c1ccc2c(c1)OCCO2`: under setting [1], the AC50 was 17.8 µM [rising, single point].
Still for that read-out and setting: then `COc1ccc(C2CNC(=O)C2)cc1OC1CCCC1` (centres undefined), with 0.251 µM [rising, partial curve].
In the case of `CC(C)C(=O)NC(=S)Nc1ccc(S(=O)(=O)N2CCCC2)cc1`, the AC50 is 0.0141 µM [rising, full curve, poor fit] under setting [1] and 0.0126 µM [rising, full curve, poor fit] under setting [2].
`COc1ccc(NC(=S)N(CCCN2CCOCC2)Cc2cn(C)c3ccccc23)cc1`: the AC50 under setting [1] was 11.2 µM [rising, partial curve, poor fit] and the AC50 under setting [2] was 12.6 µM [rising, partial curve].
On to `CC[n+]1c(-c2ccc(C)cc2)csc1Nc1c(C)n(C)n(-c2ccccc2)c1=O`, for which the AC50 under setting [2] was 35.5 µM [rising, single point].
In the case of `Cc1ccc(N=Nc2c(N)nn(-c3ccccc3)c2N)cc1`, the AC50 under setting [2] was 5.62 µM [rising, full curve].
With `CC(=O)N[C@@H]1C(O)OC(CO)C(O)C1O` (some centres undefined), the AC50 under setting [1] was 12.6 µM [falling, partial curve] and the AC50 under setting [2] was 10 µM [falling, partial curve, poor fit].
As to `COc1ccc(CNc2nc(-c3ccc4c(c3)OCO4)nc3ccccc23)c(OC)c1`, the AC50 by setting is: under setting [1], 11.2 µM [falling, partial curve]; under setting [2], 15.8 µM [falling, partial curve, poor fit].
Consider `S=C(NCC1COc2ccccc2O1)Nc1ccc(Br)cc1` (centres undefined), for which the AC50 is 11.2 µM [rising, partial curve] under setting [1] and 17.8 µM [rising, partial curve] under setting [2].
For the compound `Cc1ccc(-n2ncc3c(N4CCC(Cc5ccccc5)CC4)ncnc32)cc1`, the AC50 under setting [2] was 2.51 µM [rising, partial curve].
Same read-out and setting: then `O=C(NCC1CCCO1)c1c[nH]c2ccc(S(=O)(=O)Nc3cccc(C(F)(F)F)c3)cc2c1=O` (centres undefined), with 0.0447 µM [falling, full curve].
`CN1/C(=C/C(=O)c2nc(S(C)(=O)=O)ncc2Cl)C(C)(C)c2ccccc21`: under setting [2], the AC50 is 17.8 µM [falling, partial curve].

The values are drawn from PubChem BioAssay AID1487 (National Center for Advancing Translational Sciences (NCATS), 2009).
